Consider 8 molecules from publication doi:10.1101/2022.06.03.494746.

This assay addresses DCP1-TurboID-6xHis-3xFLAG (Arabidopsis). Nature of the assay: proximity labelling.

No constants are given. Whether binding was seen depends on the method and setting. In cells and extracts the contact can be indirect. Here binding means that the protein was enriched with, or labelled near, the bait; the list need not be complete.

B1: ORP2A, OSBP (OXYSTEROL BINDING PROTEIN)-RELATED PROTEIN (protein, UniProt Q940Y1 1-721)
chain: MRVKELHPLCCITLESPHGINSQSPEEPVTTALTRSRSLPAKSLTGGSESETVAGILYKWTNFGKGWRSRWFLLRNGILSYSKIRRPENLNLLSPDDDVRLIGDISGERLSRMDSCSGRRKQQKTVGIVHLKVSSFRESKSDDRKFYIFTATKTLHLRTDSITDRAAWLQALASTKCIFPLRSLNGDFSFIPPKDLSISTERLKKRLHEEGMNENLVKECEQIMLSEFSEMHGQVKLLHEERTNLLDALRQLEAANLEVGASGKHEFSSLGRGKYSECSTTASSDGKQEFEDVSEEDEPSFHDTKEFFNEPNIGSESNLAISGHTDIKRRTKLPDPAEKEKGVSLWSMIKDNVGKDLTRVCLPVYFNEPISSLQKCFEDLEYSYLLDRAYEHGKSGNGLLRALNVAAFAVSGYASTEGRHCKPFNPLLGETYEADFPEKGIRFFSEKVSHHPTVIACHCEGKGWKFWGDTNLRSKFWGRSIQVEPVGVLTLEFDDGEVFQWSKVTSTIYNIILGKLYCDHHGVMQIRGNRQYSCTLKFKEQSILERNPHQVNGFVEDVAGQKAATIFGKWDDSLYYVAGDGINKSKVSDPASNASLLWKRTKPPPNVTRYNLTSFAITLNELTPGLQEILPPTDSRLRPDQRHLENGEYEKANLEKQRLERRQRMSRQLQESGWRPRWFERQGESDTFKYTGGYWEARGHRNWDDCPDIFGEFTEELADAA
For the molecule B1, the binding entry is “binds”.

B2: NEDD1 (protein, UniProt B3H5K9 1-782)
chain: MMSNLVEPSWRLLAASGGDTVKLFDVSADSGDPCVLSYTPSPGCAVNSVKWNHTNLVVASTGEDKKISLWRKNGQSLGTVPVTGKDGGDSAEECLSAISFSKKGSRYICSGGTGQIVKIWDLQRKLCIKKLKGHTSTITGVMYNCKDEHLASVSVGGDLIVHNLASGARATELKDPNGQVLRLLDYSRSSRHLLVTAGDDGTVHLWDTTGRSPKMSWLKQHSAPTAGVCFSPSNEKIIASVGMDKKLYTYDSGSRRSSSCIAYEAPFSSLAFGDNGYILVAGTSNGRVVFYDIRGKPQPVTVLHAFSNSEDVTSLSWQTSKPVIVNEKNYTSEMALLGSTVEDSVVIPDPLPSTTPSASQSAMAPGSRGVSASTVNASSVEQTPNRNHLWPSGPLGRLHALRANDSYNDDMGVFSPIIDVSSVEKWADSEGYNNKDHLVVDNKPSSLLFPSSSKGYSFGDNGSKEHPIFDWKPSSTSKQDDPRAAFSSFGSITPTASSKSEDSALTPPEAWGGDKFSEKFNQLANEKFSDKFSHLHAPSRLAVSSTGASTSGSMFSSSRDFPLSHGQTNFANASLEFPRIRDFSSTFETSSTQTDNNLPSSPLFTKGITAPGNIDSLRLSPNFTRRFSTYAERISTTSSFSDGASLSLGGSPKIKKTGSETREEVLNHLLARPETVVATEAGAMPLMNQGGLKQSQTDQQQVMGSSNFTLQLFQRTLEGTLDSFQNSIHDDVRNLHIEILRQFHMHEMEMSKVLSSILENQAEQMKELKLLRKENQELRQRL
B2: the binding result is on record as “binds”.

B3: VPS15 (protein, UniProt Q9M0E5 1-1494)
chain: MGNKIARTTQVSATEYYLHDLPSSYNLVLKEVLGRGRFLKSIQCKHDEGLVVVKVYFKRGDSIDLREYERRLVKIKDVFLSLEHPHVWPFQFWQETDKAAYLVRQYFYSNLHDRLSTRPFLSLVEKKWLAFQLLLAVKQCHEKDICHGDIKCENVLLTSWNWLYLADFASFKPTYIPYDDPSDFSFFFDTRGQRLCYLAPERFYEHGGETQVAQDAPLKPSMDIFAVGCVIAELFLEGQPLFELAQLLAYRRGQHDPSQHLEKIPDPGIRKMILHMIQLEPEARLSAEDYLQNYVGVVFPNYFSPFLHTLYCCWNPLPSDMRVATCQGIFQEILKKMMENKSGDEIGVDSPVTSNPMNASTVQETFANHKLNSSKDLIRNTVNSKDEIFYSISDALKKNRHPFLKKITMDDLGTLMSLYDSRSDTYGTPFLPVEGNMRCEGMVLIASMLCSCIRNIKLPHLRREAILLLRSCSLYIDDDDRLQRVLPYVVALLSDPTAIVRCAAMETLCDILPLVRDFPPSDAKIFPEYIFPMLSMLPEDTEESVRICYASNIAKLALTAYGFLIHSFQLSDVGVLNELNSQQISTTPASETPSHLQKANGNAQLQQLRKTIAEVVQELVMGPKQTPNVRRALLQDIGELCFFFGQRQSNDFLLPILPAFLNDRDEQLRSVFFEKIVYVCFFVGQRSVEEYLLPYIDQALSDQTEAVIVNALECLSTLCKSSFLRKRALLQMIECVYPLLCYPSQWVRRAVVTFIAASSECLGAVDSYAFIAPVIRSYLSRLPASIASEEGLLSCLKPPVTREVVYRIFEKTRNPEFMAKQRKMWYSSSPQSKDWESVDLFDKDAGELNSVECRAEQKQSVEGKKQIKSASKQPEVQGKYAEKDAKLRIPRNPRPNASNTVELRDPVYPEKLQFSGFMAPYVSGANSFIEPENIPLYSFSMDKRAATNPPVASESSLQMNSLGMGSLSVPWMDSMSKSFNLASSVPVPKLISGSFHVGTNPKQFYRVVHEPESRENDQISSAISKFQDLGVSSSSKSASVTSEDASSPADLVGEPSLSRTSVPDSGWKPRGVLVAHLQEHRSAVNDIATSSDHSFFVSASDDSTVKVWDSRKLEKDISFRSRLTYHLEGSRGMCTTMLRNSTQVVVGASDGVIHMFSIDHISRGLGNVVEKYSGIVDIKKKDVKEGALVSLLNYTADSLSGPMVMYSTQNCGIHLWDTRSDLDAWTLKANPEEGYVSSLVTSPCGNWFVSGSSRGVLTLWDLRFRVPVNSWQYPIICPIEKMCLCFLPPSVSVSTTMKPLIYVAAGCNEVSLWNAEGGSCHQVLRVANYENETDVSEFQWKLPSNKVNPKPNHRQNMSSKYRIEELNEPPPRLPGIRSLLPLPGGDLLTGGTDLKIRRWDYSSPERSYCICGPSLKGVGNDDFYELKTNTGVQFVQETKRRPLATKLTAKAVLAAAATDTAGCHRDSVQSLASVKLNQRLLISSSRDGAIKVWK
As to B3, the binding entry is reported as “binds”.

B4: ELC (protein, UniProt Q9LHG8 1-398)
chain: MVPPPSNPQQVQQFLSSALSQRGPSSVPYEESNKWLIRQHLLNLISSYPSLEPKTASFMHNDGRSVNLLQADGTIPMPFHGVTYNIPVIIWLLESYPRHPPCVYVNPTADMIIKRPHAHVTPSGLVSLPYLQNWVYPSSNLVDLVSDLSAAFARDPPLYSRRRPQPPPPSPPTVYDSSLSRPPSADQSLPRPFPPSPYGGGVSRVQVQHVHHQQQSDDAAEVFKRNAINKMVEMVHSDLVSMRRAREAEAEELLSLQAGLKRREDELNIGLKEMVEEKETLEQQLQIISMNTDILDSWVRENQGKTKNLVDLDVDNAFECGDTLSKQMLECTALDLAIEDAIYSLDKSFQDGVVPFDQYLRNVRLLSREQFFHRATGSKVRAAQMEVQVAAIAGRLHS
B4: the binding result is “binds”.

B5: RH12 (protein, UniProt Q9M2E0 1-498)
chain: MNTNRGRYPPGVGTGRGAPPNPDYHQSYRQQQPPQDQQYVQRGYSQNPQQMQLQQQHQQQQQQQQWSRRPQLPGNASNANEVVQQTTQPEASSDANGQDWKATLRLPPPDTRYQTADVTATKGNEFEDYFLKRDLLKGIYEKGFEKPSPIQEESIPIALTGSDILARAKNGTGKTGAFCIPVLEKIDPNNNVIQAMILVPTRELALQTSQVCKELSKYLNIQVMVTTGGTSLRDDIMRLHQPVHLLVGTPGRILDLTKKGVCVLKDCAMLVMDEADKLLSAEFQPSLEELIQFLPQNRQFLMFSATFPVTVKAFKDRHLRKPYVINLMDQLTLMGVTQYYAFVEERQKVHCLNTLFSKLQINQSIIFCNSVNRVELLAKKITELGYSCFYIHAKMVQDHRNRVFHEFRNGACRNLVCTDLFTRGIDIQAVNVVINFDFPRTSESYLHRVGRSGRFGHLGLAVNLVTYEDRFKMYQTEQELGTEIKPIPSNIDQAIYCQ
In the case of B5, the binding entry is “binds”.

B6: Annexin 1 (ANNAT1) (protein, UniProt Q9SYT0 1-317)
chain: MATLKVSDSVPAPSDDAEQLRTAFEGWGTNEDLIISILAHRSAEQRKVIRQAYHETYGEDLLKTLDKELSNDFERAILLWTLEPGERDALLANEATKRWTSSNQVLMEVACTRTSTQLLHARQAYHARYKKSLEEDVAHHTTGDFRKLLVSLVTSYRYEGDEVNMTLAKQEAKLVHEKIKDKHYNDEDVIRILSTRSKAQINATFNRYQDDHGEEILKSLEEGDDDDKFLALLRSTIQCLTRPELYFVDVLRSAINKTGTDEGALTRIVTTRAEIDLKVIGEEYQRRNSIPLEKAITKDTRGDYEKMLVALLGEDDA
As to B6, the binding result is recorded as “binds”.

B7: SMG7 (protein, UniProt A9QM73 1-1059)
chain: MMTLQMDKTTASSSWERAKSIYDEIAELANKRQKAGNPPDPNLLQLLREKYEAIILESHTFSEQHNIEIPLWQLHYKRIEYFRLHINRVLASSTSTAAQNVKGPSKAEQIAQLKLQFRTFLSEATGFYHDMILKIRSKYGLPLGSFSEDQQSQNLSDKDGKELAEVQKALKSCHRCLIYLGDLARYKGMYAEGDSRSRQYASASSYYLQAASLWPASGNPHHQLAIVASYSRDEFVTTYRYFRSLAVEYPFPTARDNLIVAFDKNRQSYEKLFVPSKDSSKRLTGKGRGKGADISLKDATLVAGPEKDKVTIANEMLKAFSIRFVHLNGILFTRTSLETFFDVLASTSSSLREVISLGSAKELTLGIDTSDSALFIVRVVTMLIFSVHNSKKETEGQSYAEIVQRVEPARNSLTASFELLGLVIEKCVQLGDPSSSYFLPGVLVFVEWLACCPDIALGSDPDDRQTAVRNSFWNQFVVFFNQVLSLGPTFIDDVEDETCFSNMSLYDERETENRLALWEDYELRGFLPLLPAQTILNFSRKHSFGTEGPKEKKARIKRIFAAGKALTSVIKVDQNHVYFDSKKKKFLVGVKPADDFLDSHSSPPKACNALQDNQVMIDHNSPIMQLDQQIYMGEEDDDDEVIVFKPLVTEKRKEASDQIYVPSGGFRKSDQVTTMGDFKALSGSDVAFHENQILQARGNASIQVPASVGANLLGPLQPSTQSQAMHMQQVQTQVQVPASVGANLLGLLLTSTQSQAMHMQQVQTQAVNPQPAQSLAASRLQPIQSQVAQPLPSRVVHFQQTQAQVSHVSPAHSQSTSFGGGSKWSPEEAASLASSLSGFAQLGNGHVMRNEMQGNHGVSYYPAHSLPVHQSYNGNGMGGMPYSQSRTPEAVFPPKIDPVLSSGVVADGLGVQSSLAKKNPISRAFRHLGPPPGFNSVPAKLQKEPAPGSELSGNNHLPVDDYSWLDGYQAQSSRGVGLNSSLNYATSGKPEHLGSTGNGLNGPANFPFPGKQVPTSQVQADFPYFQNPQKDNFVDKNHQSTQLPEQYQGQSTWSSRHFV
With B7, the binding result is “binds”.

B8: RH8 (protein, UniProt Q8RXK6 1-505)
chain: MNNRGRYPPGIGAGRGAFNPNPNYQSRSGYQQHPPPQYVQRGNYAQNHQQQFQQAPSQPHQYQQQQQQQQQWLRRGQIPGGNSNGDAVVEVEKTVQSEVIDPNSEDWKARLKLPAPDTRYRTEDVTATKGNEFEDYFLKRELLMGIYEKGFERPSPIQEESIPIALTGRDILARAKNGTGKTAAFCIPVLEKIDQDNNVIQAVIIVPTRELALQTSQVCKELGKHLKIQVMVTTGGTSLKDDIMRLYQPVHLLVGTPGRILDLTKKGVCVLKDCSVLVMDEADKLLSQEFQPSVEHLISFLPESRQILMFSATFPVTVKDFKDRFLTNPYVINLMDELTLKGITQFYAFVEERQKIHCLNTLFSKLQINQSIIFCNSVNRVELLAKKITELGYSCFYIHAKMLQDHRNRVFHDFRNGACRNLVCTDLFTRGIDIQAVNVVINFDFPKNAETYLHRVGRSGRFGHLGLAVNLITYEDRFNLYRIEQELGTEIKQIPPHIDQAIYCQ
As to B8, the binding result is given as “binds”.
